Measurements: US20210015937A1
No constants are given. Whether binding was seen depends on the method and setting. Some binding calls cover weakened binding; strength is not graded here. Sequences can lack the tags named with a protein.

The chains behind the UniProt entries cited, without tags or fusion partners. Where a name states a change or a piece, a line headed by the entry shows the natural chain unless it says otherwise.
UniProt P18627: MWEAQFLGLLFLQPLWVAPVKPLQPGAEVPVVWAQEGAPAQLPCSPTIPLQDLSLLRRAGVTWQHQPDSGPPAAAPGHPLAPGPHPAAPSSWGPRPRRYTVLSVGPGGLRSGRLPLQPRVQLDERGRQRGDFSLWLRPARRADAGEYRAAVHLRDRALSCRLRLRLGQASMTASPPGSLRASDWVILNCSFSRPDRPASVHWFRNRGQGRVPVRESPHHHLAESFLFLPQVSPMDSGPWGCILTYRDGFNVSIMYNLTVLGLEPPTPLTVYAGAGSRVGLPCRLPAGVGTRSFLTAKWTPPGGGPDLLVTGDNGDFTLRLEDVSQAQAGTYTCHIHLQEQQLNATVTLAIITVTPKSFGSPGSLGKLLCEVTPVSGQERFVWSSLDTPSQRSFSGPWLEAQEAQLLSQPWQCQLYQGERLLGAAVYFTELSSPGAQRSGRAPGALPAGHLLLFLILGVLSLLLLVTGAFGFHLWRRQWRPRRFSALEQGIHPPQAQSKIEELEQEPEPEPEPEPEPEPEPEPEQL

B1: VH1.1-6GS-VH1.1-9GS-VH2.63-His6 (bispecific antibody)
chain: EVQLVESGGGVVRPGGSLRLSCSASGFTFDDYGMSWVRQAPGKGLEWVSGIHWNGGNSGYADSVKGRFTISRDNAKNSLYLQMNSLRAEDTALYYCARIPREDCSSASCYTDAIDFWGPGTMVTVSSGGGGSGGGGSGGGGSGGGGSGGGGSGGGGSEVQLVESGGGVVRPGGSLRLSCSASGFTFDDYGMSWVRQAPGKGLEWVSGIHWNGGNSGYADSVKGRFTISRDNAKNSLYLQMNSLRAEDTALYYCARIPREDCSSASCYTDAIDFWGPGTMVTVSSGGGGSGGGGSGGGGSGGGGSGGGGSGGGGSGGGGSGGGGSGGGGSEVQLVESGGGLVKPGGSLRLSCAASGFTFSDSSMTWMRQAPGKGLEWVSYISSGGGVKFYTDSVKGRFTISRDNAKNSLYLQMNSLRADDTAVYYCAREAPLRLGESPHDAFDISGQGTMVTVSSAAAHHHHHH
B2: VH1.2-6GS-VH1.2-6GS-VH2.92-His6 (bispecific antibody)
chain: EVQLVESGGGVVRPGGSLRLSCAASGFTFDDYGMSWVRQAPGKGLEWVSGIHWNGGSTGYADSVKGRFTISRDNAKNSLYLQMNSLRAEDTALYYCARIPREDCSSASCYTDAIDFWGQGTMVTVSSGGGGSGGGGSGGGGSGGGGSGGGGSGGGGSEVQLVESGGGVVRPGGSLRLSCAASGFTFDDYGMSWVRQAPGKGLEWVSGIHWNGGSTGYADSVKGRFTISRDNAKNSLYLQMNSLRAEDTALYYCARIPREDCSSASCYTDAIDFWGQGTMVTVSSGGGGSGGGGSGGGGSGGGGSGGGGSGGGGSEVQLVESGGGLVKPGGSLRLSCAASGFTFSDESMTWMRQAPGKGLEWVSYISSGGGVKFYADSVKGRFTISRDNAKNSLYLQMNSLRAEDTAVYYCAREAPLRLGESPHDAFDISGQGTMVTVSSAAAHHHHHH

Legend:
[1] = target: LAG-3 and PD-1 on activated human T cells (human) (UniProt P18627); experiment: flow cytometry on activated human T cells (FIG. 2)
[2] = target: LAG-3 and PD-1 on activated human T cells (human) (UniProt P18627); experiment: flow cytometry (Intellicyte) on anti-CD3/anti-CD28 stimulated human CD4+ T cells; His-tagged VH detected with anti-HIS biotin and streptavidin AlexaFluor488
[3] = target: LAG-3 and PD-1 on activated human T cells (human) (UniProt P18627); experiment: flow cytometry on anti-CD3/anti-CD28 stimulated CD4+ T cells, anti-HIS detection
[4] = target: LAG-3 and PD-1 on activated human T cells (human) (UniProt P18627); experiment: flow cytometry on activated human T cells

Binder | binding [1] | binding [2] | binding [3] | binding [4]
B1 | binds | binds | binds | –
B2 | – | – | – | binds
